Results published in patent US7993869.
No constants are given. Whether binding was seen depends on the method and setting. Binding can be weak; no strength is given.

Target: α-gliadin (wheat)
Assay: Western blot

binding: binds
B1: anti-Glia-α2/9 mAb (antibody, IgG1, V domains shown)
VH: EVKLVESGGGLVKPGGSLKLSCAASGFTFSTYAMSWVRQTPEKRLEWVASISSGGSTTYYPDSVKGRFTISRDNARNILYLQMSSLRSEDTAMYYCARVPTYKDYAMDYWGQGTSVTVSS
VL: DVVMTQTPLSLPVSLGDQASISCRSSQSLVHSNGNTYLHWYLQKPGQSPKLLIYKVSNRFSGVPDRFSGSGSGTDFTLKISRVEAEDLGVYFCSQSTHVLTFGAGTKLELKR
